PubChem BioAssay AID1259308 | NCATS | 2017
Test: 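Candidate targets for better recombinant protein yield in mammalian cells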 (primary screen). Cell system: human HEK293 embryonic kidney cells stably expressing firefly luciferase (HEK-CMV-Luc2-Hygro). Knock-down reagent: single siRNA against human genes, 0.8 pmol siRNA per well. Time to read-out: 72 h. Read-out: 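Reporter luminescence and viable-cell signal on separate replicate plates, given as percent of non-targeting control and median/MAD z-scores, plus per-cell luciferase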. Reading the numbers: total luciferase, z-score and total luciferase, % of control: higher = more reporter protein produced; luciferase per cell, z-score: higher = more reporter output per viable cell. Active means: 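An siRNA counts as active if its total luciferase robust z-score exceeds 3; genes with two or more such siRNAs out of three were retested with fresh siRNAs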. Meaning of the calls: active = raised luciferase; inactive = no rise.
This is a random part of about 59,000 reagents tested. Over the whole deposit, about 1,510 (2.6%) got an active call. 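Calls use total luciferase alone and ignore viability, so some active siRNAs may act by altering cell number.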 Unmarked entries are inactive. The numbers tell different reagents against one gene apart. Not all columns of the deposit are shown. Reagent sequences are not shown.

Gene,siRNA no.,"total luciferase, z-score","total luciferase, % of control","luciferase per cell, z-score"
RSKR (ribosomal protein S6 kinase related),1,2.98,141,1.53
RSKR (ribosomal protein S6 kinase related),2,0.0435,82.8,-0.8
RSKR (ribosomal protein S6 kinase related),3,-0.663,68.7,-0.159
RSKR (ribosomal protein S6 kinase related),4,-0.603,69.9,-0.291
RSKR (ribosomal protein S6 kinase related),5,-0.556,70.8,-1.03
RSKR (ribosomal protein S6 kinase related),6,1.86,119,1.79
OTUD1 (OTU deubiquitinase 1),1,-0.0904,80.1,-0.157
OTUD1 (OTU deubiquitinase 1),2,-1.32,55.7,0.46
OTUD1 (OTU deubiquitinase 1),3,-0.703,67.9,-0.153
ARF3 (ARF GTPase 3),1,0.0593,83.1,-0.0592
ARF3 (ARF GTPase 3),2,-0.51,71.7,-0.918
ARF3 (ARF GTPase 3),3,0.58,93.4,-0.133
ANKRD9 (ankyrin repeat domain 9),1,-0.248,76.9,-0.376
ANKRD9 (ankyrin repeat domain 9),2,1.7,116,0.895
ANKRD9 (ankyrin repeat domain 9),3,-0.491,72.1,-0.404
SLC2A10,1,0.719,96.2,0.164
SLC2A10,2,0.789,97.6,1.07
SLC2A10,3,-0.336,75.2,0.455
CFAP36 (cilia and flagella associated protein 36),1,-0.871,64.6,-0.271
CFAP36 (cilia and flagella associated protein 36),2,-0.351,74.9,-0.588
CFAP36 (cilia and flagella associated protein 36),3,-0.528,71.4,-1.07
MCM7 (minichromosome maintenance complex component 7),1,0.174,85.3,-0.448
MCM7 (minichromosome maintenance complex component 7),2,0.401,89.9,-0.024
MCM7 (minichromosome maintenance complex component 7),3,-2.4,34.1,-1.44
POLR2J3 (RNA polymerase II subunit J3),1,-3.52,11.8,-5.39
POLR2J3 (RNA polymerase II subunit J3),2,-2.92,23.8,-3.02
POLR2J3 (RNA polymerase II subunit J3),3,-3.25,17.2,-4.03
CHORDC1 (cysteine and histidine rich domain containing 1),1,0.568,93.2,0.0996
CHORDC1 (cysteine and histidine rich domain containing 1),2,-0.24,77.1,-0.632
CHORDC1 (cysteine and histidine rich domain containing 1),3,-0.547,71,-0.832
AGTRAP (angiotensin II receptor associated protein),1,1.56,113,1.09
AGTRAP (angiotensin II receptor associated protein),2,-1.71,47.8,-1.26
AGTRAP (angiotensin II receptor associated protein),3,-0.126,79.4,-0.374
MAMDC4 (MAM domain containing 4),1,2.31,128,1.92
MAMDC4 (MAM domain containing 4),2,0.522,92.3,0.682
MAMDC4 (MAM domain containing 4),3,0.191,85.7,0.0598
SKOR1 (SKI family transcriptional corepressor 1),1,-0.357,74.8,-0.714
SKOR1 (SKI family transcriptional corepressor 1),2,-0.78,66.4,-1.41
SKOR1 (SKI family transcriptional corepressor 1),3,-2,42.1,-0.802
MIR1-1HG (MIR1-1 host gene),1,1.2,106,0.973
MIR1-1HG (MIR1-1 host gene),2,0.221,86.3,-0.736
MIR1-1HG (MIR1-1 host gene),3,0.346,88.8,0.097
KDM4E (lysine demethylase 4E),1,2.88,139,3.76
KDM4E (lysine demethylase 4E),2,1.06,103,0.758
KDM4E (lysine demethylase 4E),3,1.45,111,1.68
MS4A10 (membrane spanning 4-domains A10),1,0.345,88.7,-0.196
MS4A10 (membrane spanning 4-domains A10),2,-3.07,20.8,-3.85
MS4A10 (membrane spanning 4-domains A10),3,-0.0407,81.1,-0.491
GPD1 (glycerol-3-phosphate dehydrogenase 1),1,1.14,105,0.473
GPD1 (glycerol-3-phosphate dehydrogenase 1),2,-0.561,70.7,-0.819
GPD1 (glycerol-3-phosphate dehydrogenase 1),3,0.111,84.1,-0.282
PDE4C (phosphodiesterase 4C),1,0.517,92.2,0.991
PDE4C (phosphodiesterase 4C),2,-0.171,78.5,-0.312
PDE4C (phosphodiesterase 4C),3,-0.327,75.4,-0.576
PEF1 (penta-EF-hand domain containing 1),1,-0.912,63.7,-1.08
PEF1 (penta-EF-hand domain containing 1),2,-0.461,72.7,-0.945
PEF1 (penta-EF-hand domain containing 1),3,-0.988,62.2,-0.387

Ordered by “luciferase per cell, z-score” (highest first): some entries from above
Gene,siRNA no.,"total luciferase, z-score","total luciferase, % of control","luciferase per cell, z-score"
AGTRAP (angiotensin II receptor associated protein),1,1.56,113,1.09
CHORDC1 (cysteine and histidine rich domain containing 1),1,0.568,93.2,0.0996
CHORDC1 (cysteine and histidine rich domain containing 1),2,-0.24,77.1,-0.632
CHORDC1 (cysteine and histidine rich domain containing 1),3,-0.547,71,-0.832
AGTRAP (angiotensin II receptor associated protein),2,-1.71,47.8,-1.26
MCM7 (minichromosome maintenance complex component 7),3,-2.4,34.1,-1.44
POLR2J3 (RNA polymerase II subunit J3),2,-2.92,23.8,-3.02
POLR2J3 (RNA polymerase II subunit J3),3,-3.25,17.2,-4.03
POLR2J3 (RNA polymerase II subunit J3),1,-3.52,11.8,-5.39
